{"sequences": {"note": "Amino acid sequences for entries named in this document (tags omitted). A change or cut given only in a name is not applied to a line headed by its entry.", "UniProt Q9Y5X1": "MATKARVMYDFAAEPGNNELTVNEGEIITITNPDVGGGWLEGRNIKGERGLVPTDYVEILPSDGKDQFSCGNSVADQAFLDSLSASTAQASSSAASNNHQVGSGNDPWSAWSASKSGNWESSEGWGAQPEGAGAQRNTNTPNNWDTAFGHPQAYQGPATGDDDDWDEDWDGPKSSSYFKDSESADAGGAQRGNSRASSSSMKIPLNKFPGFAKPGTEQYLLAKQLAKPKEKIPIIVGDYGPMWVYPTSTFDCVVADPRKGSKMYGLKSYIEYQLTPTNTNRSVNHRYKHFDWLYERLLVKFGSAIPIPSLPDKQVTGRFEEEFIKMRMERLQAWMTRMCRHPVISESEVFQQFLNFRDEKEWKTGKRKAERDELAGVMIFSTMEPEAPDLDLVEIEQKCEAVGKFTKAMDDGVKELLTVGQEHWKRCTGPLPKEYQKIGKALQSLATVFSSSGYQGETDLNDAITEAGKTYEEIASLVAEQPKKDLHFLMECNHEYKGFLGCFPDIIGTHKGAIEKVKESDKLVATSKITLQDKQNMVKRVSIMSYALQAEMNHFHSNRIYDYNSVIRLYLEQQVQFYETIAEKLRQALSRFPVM"}, "source": "paper PMC13248759", "key": {"NUMB-1-GFP11 (human)": {"target": "T1, NUMB-1-GFP11 (human) (UniProt P49757)", "T1 sequence": "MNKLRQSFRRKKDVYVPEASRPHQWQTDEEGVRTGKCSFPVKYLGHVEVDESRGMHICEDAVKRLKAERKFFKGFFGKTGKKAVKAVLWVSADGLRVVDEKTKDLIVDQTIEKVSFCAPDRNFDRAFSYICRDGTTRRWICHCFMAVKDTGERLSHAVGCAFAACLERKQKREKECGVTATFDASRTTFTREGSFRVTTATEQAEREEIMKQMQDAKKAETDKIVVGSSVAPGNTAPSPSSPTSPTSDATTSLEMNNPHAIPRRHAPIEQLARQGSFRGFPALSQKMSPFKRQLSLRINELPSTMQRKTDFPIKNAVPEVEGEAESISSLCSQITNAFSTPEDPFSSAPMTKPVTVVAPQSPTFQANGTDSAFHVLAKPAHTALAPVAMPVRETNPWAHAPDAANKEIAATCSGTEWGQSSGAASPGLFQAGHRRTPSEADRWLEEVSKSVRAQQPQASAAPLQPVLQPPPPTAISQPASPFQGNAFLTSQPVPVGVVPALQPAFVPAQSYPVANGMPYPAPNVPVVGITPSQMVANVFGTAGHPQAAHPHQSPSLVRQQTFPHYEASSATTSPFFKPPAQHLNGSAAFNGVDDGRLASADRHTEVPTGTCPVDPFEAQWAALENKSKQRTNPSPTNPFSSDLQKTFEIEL", "assay": "split reporter; tripartite split-GFP: SNX9-GFP10 and NUMB-1-GFP11 transfected into HEK-293 cells stably expressing GFP 1-9 and KO for SNX9 and NUMB; GFP fluorescence imaged"}, "[1]": {"target": "T2, NUMB-1 as used in the SEC analysis of Figure S6C (human) (UniProt P49757)", "T2 sequence": "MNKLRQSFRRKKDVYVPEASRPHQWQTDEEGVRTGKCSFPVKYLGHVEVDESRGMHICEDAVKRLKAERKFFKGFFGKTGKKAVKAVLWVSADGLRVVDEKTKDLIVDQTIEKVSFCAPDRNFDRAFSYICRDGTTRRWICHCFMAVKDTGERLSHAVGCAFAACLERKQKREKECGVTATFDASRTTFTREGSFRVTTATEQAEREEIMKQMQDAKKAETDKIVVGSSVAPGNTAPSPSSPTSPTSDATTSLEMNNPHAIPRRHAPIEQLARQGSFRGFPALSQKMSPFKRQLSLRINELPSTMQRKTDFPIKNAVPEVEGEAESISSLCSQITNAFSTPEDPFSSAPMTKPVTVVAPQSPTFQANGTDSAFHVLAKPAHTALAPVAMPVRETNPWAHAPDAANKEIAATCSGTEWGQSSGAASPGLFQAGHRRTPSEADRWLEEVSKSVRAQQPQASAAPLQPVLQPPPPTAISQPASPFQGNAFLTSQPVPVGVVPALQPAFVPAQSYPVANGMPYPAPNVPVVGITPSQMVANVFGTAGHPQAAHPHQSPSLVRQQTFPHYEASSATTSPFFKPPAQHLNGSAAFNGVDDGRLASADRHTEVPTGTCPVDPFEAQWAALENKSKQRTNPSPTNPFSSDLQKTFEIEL", "assay": "SEC; proteins combined at 100 uM (SNX9 FL counted as a dimer), MDM2 at 400 uM; Superdex 200 Increase 5/150 GL, 20 mM Tris pH 7.6, 200 mM NaCl, 0.5 mM EDTA, 1 mM DTT; fractions on SDS-PAGE, Coomassie; both purified"}, "[2]": {"target": "T3, GST-tagged NUMB-1 protein of the in vitro binding assay of Figure S6D (human) (UniProt P49757)", "T3 sequence": "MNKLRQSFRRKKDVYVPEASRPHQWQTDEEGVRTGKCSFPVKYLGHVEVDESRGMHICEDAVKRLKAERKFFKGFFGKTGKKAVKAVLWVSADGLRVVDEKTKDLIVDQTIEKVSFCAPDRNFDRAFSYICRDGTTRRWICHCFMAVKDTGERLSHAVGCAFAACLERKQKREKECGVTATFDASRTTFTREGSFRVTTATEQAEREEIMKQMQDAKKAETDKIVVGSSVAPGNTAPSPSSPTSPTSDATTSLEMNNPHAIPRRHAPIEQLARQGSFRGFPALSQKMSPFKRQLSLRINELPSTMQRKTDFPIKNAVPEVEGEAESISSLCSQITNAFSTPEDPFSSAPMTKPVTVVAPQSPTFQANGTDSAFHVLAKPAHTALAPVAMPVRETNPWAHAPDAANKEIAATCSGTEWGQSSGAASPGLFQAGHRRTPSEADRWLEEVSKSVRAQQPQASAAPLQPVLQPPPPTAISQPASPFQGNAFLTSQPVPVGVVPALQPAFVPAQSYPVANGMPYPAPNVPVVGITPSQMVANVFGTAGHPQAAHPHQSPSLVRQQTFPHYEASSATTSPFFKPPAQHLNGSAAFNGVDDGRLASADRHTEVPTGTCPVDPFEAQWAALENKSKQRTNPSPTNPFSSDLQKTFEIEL", "assay": "pull-down; GST-tagged proteins (0.5 uM) on GSH beads, SNX9 proteins (1.5 uM) in solution, 2 h at 4 C, 10 mM Hepes pH 7.5, 150 mM NaCl, 5% glycerol, 0.1% Tween-20, Coomassie staining (Figure S6D); both purified"}, "NUMB-4-FLAG (human)": {"target": "NUMB-4-FLAG (human)", "assay": "co-IP; lysates of transfected HEK-293 cells in JS buffer (50 mM HEPES pH 7.5, 150 mM NaCl, 1% Triton X-100), anti-FLAG or anti-HA beads, 2 h at 4 C, immunoblot; in some panels SNX9 siRNA or graded amounts of SNX9-HA"}, "NUMB-2-FLAG (human)": {"target": "NUMB-2-FLAG (human)", "assay": "co-IP; lysates of transfected HEK-293 cells in JS buffer (50 mM HEPES pH 7.5, 150 mM NaCl, 1% Triton X-100), anti-FLAG or anti-HA beads, 2 h at 4 C, immunoblot; in some panels SNX9 siRNA or graded amounts of SNX9-HA"}, "NUMB-3-FLAG (human)": {"target": "NUMB-3-FLAG (human)", "assay": "co-IP; lysates of transfected HEK-293 cells in JS buffer (50 mM HEPES pH 7.5, 150 mM NaCl, 1% Triton X-100), anti-FLAG or anti-HA beads, 2 h at 4 C, immunoblot; in some panels SNX9 siRNA or graded amounts of SNX9-HA"}}, "note": "Results are given in words; binding and its absence hold for the method and conditions named. For part of these data: A result given as binding can be weak or reduced; the word gives no strength. For part of these data: Where a sequence is shown, tags or fusion partners need not be part of it. For part of these data: Binding seen in cells or lysates may run through a third protein.", "data": [{"molecule": "SNX9-PXmut-GFP10 (from UniProt Q9Y5X1)", "values": [{"measurement": "binding", "setting": "NUMB-1-GFP11 (human)", "result": "no binding"}]}, {"molecule": "SNX9-PXmut, purified recombinant (from UniProt Q9Y5X1)", "values": [{"measurement": "binding", "setting": "[1]", "result": "binds"}, {"measurement": "binding", "setting": "[2]", "result": "binds"}]}, {"molecule": "EPS15, endogenous (protein, UniProt P42566 1-896) MAAAAQLSLTQLSSGNPVYEKYYRQVDTGNTGRVLASDAAAFLKKSGLPDLILGKIWDLADTDGKGILNKQEFFVALRLVACAQNGLEVSLSSLNLAVPPPRFHDTSSPLLISGTSAAELPWAVKPEDKAKYDAIFDSLSPVNGFLSGDKVKPVLLNSKLPVDILGRVWELSDIDHDGMLDRDEFAVAMFLVYCALEKEPVPMSLPPALVPPSKRKTWVVSPAEKAKYDEIFLKTDKDMDGFVSGLEVREIFLKTGLPSTLLAHIWSLCDTKDCGKLSKDQFALAFHLISQKLIKGIDPPHVLTPEMIPPSDRASLQKNIIGSSPVADFSAIKELDTLNNEIVDLQREKNNVEQDLKEKEDTIKQRTSEVQDLQDEVQRENTNLQKLQAQKQQVQELLDELDEQKAQLEEQLKEVRKKCAEEAQLISSLKAELTSQESQISTYEEELAKAREELSRLQQETAELEESVESGKAQLEPLQQHLQDSQQEISSMQMKLMEMKDLENHNSQLNWCSSPHSILVNGATDYCSLSTSSSETANLNEHVEGQSNLESEPIHQESPARSSPELLPSGVTDENEVTTAVTEKVCSELDNNRHSKEEDPFNVDSSSLTGPVADTNLDFFQSDPFVGSDPFKDDPFGKIDPFGGDPFKGSDPFASDCFFRQSTDPFATSSTDPFSAANNSSITSVETLKHNDPFAPGGTVVAASDSATDPFASVFGNESFGGGFADFSTLSKVNNEDPFRSATSSSVSNVVITKNVFEETSVKSEDEPPALPPKIGTPTRPCPLPPGKRSINKLDSPDPFKLNDPFQPFPGNDSPKEKDPEIFCDPFTSATTTTNKEADPSNFANFSAYPSEEDMIEWAKRESEREEEQRLARLNQQEQEDLELAIALSKSEISEA", "values": [{"measurement": "binding", "setting": "NUMB-4-FLAG (human)", "result": "binds"}, {"measurement": "binding", "setting": "NUMB-2-FLAG (human)", "result": "binds"}, {"measurement": "binding", "setting": "NUMB-3-FLAG (human)", "result": "binds"}]}]}
